# Experimental data reported in paper doi:10.1101/2025.08.11.669663.
# The chains behind the UniProt entries cited, without tags or fusion partners.
# UniProt P00441: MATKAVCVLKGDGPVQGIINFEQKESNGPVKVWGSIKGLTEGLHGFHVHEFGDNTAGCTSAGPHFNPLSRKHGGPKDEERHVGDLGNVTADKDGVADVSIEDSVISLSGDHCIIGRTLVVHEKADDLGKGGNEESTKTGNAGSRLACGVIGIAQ
# UniProt P04406: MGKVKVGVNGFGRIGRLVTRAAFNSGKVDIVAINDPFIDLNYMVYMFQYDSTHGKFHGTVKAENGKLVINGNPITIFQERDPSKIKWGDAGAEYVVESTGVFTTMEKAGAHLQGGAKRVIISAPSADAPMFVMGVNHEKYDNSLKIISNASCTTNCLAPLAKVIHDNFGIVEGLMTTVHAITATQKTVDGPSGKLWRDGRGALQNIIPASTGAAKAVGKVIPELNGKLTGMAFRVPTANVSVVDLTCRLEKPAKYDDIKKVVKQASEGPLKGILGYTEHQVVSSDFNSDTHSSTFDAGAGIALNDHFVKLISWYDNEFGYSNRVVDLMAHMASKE
# UniProt P12004: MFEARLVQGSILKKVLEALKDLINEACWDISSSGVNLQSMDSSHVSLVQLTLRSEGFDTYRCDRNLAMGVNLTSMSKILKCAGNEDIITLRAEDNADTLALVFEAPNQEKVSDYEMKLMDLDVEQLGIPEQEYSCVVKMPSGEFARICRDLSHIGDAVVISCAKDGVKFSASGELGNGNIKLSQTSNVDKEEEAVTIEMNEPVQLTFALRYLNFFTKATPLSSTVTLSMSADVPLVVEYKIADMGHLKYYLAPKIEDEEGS
# UniProt P49736: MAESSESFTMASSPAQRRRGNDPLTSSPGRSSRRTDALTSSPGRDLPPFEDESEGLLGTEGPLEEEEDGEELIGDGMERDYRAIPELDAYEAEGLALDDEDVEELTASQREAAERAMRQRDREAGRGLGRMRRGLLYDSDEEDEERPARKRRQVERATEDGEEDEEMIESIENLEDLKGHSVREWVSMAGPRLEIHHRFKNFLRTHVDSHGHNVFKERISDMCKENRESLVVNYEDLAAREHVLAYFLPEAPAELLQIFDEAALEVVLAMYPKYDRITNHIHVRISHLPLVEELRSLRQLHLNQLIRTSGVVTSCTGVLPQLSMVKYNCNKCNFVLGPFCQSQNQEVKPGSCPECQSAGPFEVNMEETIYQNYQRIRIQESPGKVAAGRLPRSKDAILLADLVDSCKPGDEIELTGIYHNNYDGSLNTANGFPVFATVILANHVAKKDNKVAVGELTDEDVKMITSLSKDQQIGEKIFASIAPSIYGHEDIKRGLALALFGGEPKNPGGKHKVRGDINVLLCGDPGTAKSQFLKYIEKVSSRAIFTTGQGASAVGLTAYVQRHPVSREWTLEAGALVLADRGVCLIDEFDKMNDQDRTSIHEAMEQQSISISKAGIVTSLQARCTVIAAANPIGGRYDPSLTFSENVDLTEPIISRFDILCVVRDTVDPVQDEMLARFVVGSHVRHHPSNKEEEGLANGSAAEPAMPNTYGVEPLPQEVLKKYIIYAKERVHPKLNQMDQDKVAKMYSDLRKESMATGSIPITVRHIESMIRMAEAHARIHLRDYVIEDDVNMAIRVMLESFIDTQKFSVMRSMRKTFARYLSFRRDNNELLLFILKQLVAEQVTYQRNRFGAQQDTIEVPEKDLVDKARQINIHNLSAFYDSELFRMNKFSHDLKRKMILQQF
# UniProt P28340: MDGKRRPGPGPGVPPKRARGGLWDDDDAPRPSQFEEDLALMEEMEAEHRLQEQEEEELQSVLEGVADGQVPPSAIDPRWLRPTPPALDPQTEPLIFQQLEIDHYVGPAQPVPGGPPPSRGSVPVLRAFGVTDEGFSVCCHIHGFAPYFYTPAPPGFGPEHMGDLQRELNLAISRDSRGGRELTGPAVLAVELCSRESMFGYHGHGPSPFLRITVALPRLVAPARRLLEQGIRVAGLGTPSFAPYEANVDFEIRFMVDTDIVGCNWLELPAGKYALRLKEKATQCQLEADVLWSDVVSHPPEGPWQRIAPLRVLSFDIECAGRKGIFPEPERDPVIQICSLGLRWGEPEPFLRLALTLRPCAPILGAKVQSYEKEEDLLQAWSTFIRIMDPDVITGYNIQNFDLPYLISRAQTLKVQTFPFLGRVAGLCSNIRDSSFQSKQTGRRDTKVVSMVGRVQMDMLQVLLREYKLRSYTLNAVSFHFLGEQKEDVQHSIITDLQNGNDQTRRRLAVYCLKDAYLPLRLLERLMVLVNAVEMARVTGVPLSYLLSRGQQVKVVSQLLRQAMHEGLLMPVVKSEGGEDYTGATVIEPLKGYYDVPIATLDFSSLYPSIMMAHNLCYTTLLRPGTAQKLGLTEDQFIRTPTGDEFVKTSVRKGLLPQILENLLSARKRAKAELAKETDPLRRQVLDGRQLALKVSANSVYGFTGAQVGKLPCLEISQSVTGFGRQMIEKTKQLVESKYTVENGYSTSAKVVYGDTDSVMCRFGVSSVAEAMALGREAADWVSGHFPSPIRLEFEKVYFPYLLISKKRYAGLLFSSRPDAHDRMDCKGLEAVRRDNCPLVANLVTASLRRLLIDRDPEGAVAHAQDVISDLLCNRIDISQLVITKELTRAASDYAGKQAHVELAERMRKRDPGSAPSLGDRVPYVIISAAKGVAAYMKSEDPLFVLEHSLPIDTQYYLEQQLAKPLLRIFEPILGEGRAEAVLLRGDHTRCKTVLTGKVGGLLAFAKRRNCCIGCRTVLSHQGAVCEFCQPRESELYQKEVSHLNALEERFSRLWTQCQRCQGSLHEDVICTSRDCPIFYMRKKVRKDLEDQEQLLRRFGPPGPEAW
# UniProt P52701: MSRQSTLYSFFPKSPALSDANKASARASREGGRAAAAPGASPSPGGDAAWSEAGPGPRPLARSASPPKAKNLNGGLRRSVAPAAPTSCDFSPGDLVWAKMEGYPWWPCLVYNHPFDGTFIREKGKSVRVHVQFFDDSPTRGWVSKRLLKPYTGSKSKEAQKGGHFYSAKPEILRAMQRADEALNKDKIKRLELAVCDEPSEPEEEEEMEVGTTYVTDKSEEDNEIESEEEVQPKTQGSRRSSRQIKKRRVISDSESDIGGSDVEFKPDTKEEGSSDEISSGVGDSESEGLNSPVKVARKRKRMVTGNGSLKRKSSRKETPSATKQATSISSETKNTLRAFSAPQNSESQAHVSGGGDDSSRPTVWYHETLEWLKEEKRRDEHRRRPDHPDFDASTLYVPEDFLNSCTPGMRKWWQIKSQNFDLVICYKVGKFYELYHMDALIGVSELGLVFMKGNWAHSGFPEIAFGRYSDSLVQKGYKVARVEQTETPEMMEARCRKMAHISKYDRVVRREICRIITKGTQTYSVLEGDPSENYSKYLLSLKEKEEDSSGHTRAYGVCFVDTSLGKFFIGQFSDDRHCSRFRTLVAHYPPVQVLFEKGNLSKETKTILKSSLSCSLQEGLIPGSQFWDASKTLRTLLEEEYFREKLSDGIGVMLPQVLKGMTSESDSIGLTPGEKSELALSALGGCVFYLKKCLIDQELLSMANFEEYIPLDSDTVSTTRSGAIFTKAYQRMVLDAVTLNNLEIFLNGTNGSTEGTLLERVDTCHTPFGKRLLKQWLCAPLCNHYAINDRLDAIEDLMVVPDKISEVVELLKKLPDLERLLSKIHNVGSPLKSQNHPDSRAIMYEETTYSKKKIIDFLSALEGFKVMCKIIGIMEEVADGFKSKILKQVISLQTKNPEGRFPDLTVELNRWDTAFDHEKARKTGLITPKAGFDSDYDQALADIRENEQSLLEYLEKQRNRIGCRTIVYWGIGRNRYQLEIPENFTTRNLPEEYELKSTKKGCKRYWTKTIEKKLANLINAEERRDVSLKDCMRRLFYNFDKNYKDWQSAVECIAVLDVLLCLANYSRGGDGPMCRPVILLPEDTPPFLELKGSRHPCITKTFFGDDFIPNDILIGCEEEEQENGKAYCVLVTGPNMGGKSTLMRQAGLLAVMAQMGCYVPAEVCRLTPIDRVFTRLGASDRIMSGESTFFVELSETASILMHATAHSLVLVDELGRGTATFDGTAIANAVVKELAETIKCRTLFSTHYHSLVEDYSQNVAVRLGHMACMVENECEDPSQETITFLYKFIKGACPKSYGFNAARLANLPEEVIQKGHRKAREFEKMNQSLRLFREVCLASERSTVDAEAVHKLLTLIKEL
# UniProt P39748: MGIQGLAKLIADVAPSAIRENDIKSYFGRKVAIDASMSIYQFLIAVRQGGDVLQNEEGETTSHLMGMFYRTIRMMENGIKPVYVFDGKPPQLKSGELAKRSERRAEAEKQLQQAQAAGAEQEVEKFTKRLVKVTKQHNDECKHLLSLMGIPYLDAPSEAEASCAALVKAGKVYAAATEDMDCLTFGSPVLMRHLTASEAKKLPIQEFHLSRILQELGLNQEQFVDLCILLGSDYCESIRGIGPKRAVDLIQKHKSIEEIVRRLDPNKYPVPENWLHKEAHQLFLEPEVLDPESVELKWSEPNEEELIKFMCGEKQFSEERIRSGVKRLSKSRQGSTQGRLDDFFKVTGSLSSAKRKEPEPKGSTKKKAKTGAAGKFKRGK
# Results are given in words; binding and its absence hold for the method and conditions named. Binding seen in cells or lysates may run through a third protein. Here binding means that the protein was enriched with, or labelled near, the bait; the list need not be complete.
# Assays:
# Experiment in all cases: affinity purification with mass spectrometry
# [1] = biological target: Cu/Zn superoxide dismutase (SOD1) (human (endogenous in HeLa)) (UniProt P00441)
# [2] = biological target: T1, catalase (CAT) (human (endogenous in HeLa)) (UniProt P04040)
# T1 sequence: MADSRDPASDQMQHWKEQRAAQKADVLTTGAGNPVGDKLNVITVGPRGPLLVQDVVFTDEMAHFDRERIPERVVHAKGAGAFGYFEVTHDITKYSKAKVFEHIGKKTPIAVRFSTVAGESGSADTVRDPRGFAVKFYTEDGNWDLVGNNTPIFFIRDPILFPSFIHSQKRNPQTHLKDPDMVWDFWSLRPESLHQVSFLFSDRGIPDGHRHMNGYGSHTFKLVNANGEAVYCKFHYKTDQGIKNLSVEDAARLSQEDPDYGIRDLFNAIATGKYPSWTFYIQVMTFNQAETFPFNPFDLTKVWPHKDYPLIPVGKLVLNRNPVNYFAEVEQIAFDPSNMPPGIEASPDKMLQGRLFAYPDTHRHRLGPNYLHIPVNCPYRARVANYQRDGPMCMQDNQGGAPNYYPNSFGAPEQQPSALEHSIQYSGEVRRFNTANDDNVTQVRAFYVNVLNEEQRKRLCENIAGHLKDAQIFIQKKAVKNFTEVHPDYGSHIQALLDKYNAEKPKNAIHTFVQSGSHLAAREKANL
# [3] = biological target: T2, peroxiredoxin 2 (PRDX2) (human (endogenous in HeLa)) (UniProt P32119)
# T2 sequence: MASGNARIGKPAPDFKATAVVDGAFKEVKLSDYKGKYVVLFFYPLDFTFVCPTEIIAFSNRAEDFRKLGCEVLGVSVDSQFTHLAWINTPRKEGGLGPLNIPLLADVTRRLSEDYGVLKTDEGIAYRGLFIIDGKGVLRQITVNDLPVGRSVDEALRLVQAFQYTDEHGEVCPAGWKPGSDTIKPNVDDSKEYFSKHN
Substance,binding [1],binding [2],binding [3]
glyceraldehyde-3-phosphate dehydrogenase (GAPDH) (from UniProt P04406 1-335),binds,,
PCNA (from UniProt P12004 1-261),binds,binds,
MCM2 (from UniProt P49736 1-904),binds,binds,binds
POLD1 (a DNA polymerase subunit) (from UniProt P28340 1-1107),binds,binds,binds

# The next lines start with the values.
binding [1],binding [2],binding [3],Substance
binds,binds,binds,MSH6 (from UniProt P52701 1-1360)
binds,binds,,FEN1 (from UniProt P39748 1-380)
